Data as given in publication PMC9888389.

Chains of the proteins cited; added tags and fusions are not shown. Lines headed by an entry give the natural chain unless they say otherwise; changes in a name come on top.
UniProt Q9D906: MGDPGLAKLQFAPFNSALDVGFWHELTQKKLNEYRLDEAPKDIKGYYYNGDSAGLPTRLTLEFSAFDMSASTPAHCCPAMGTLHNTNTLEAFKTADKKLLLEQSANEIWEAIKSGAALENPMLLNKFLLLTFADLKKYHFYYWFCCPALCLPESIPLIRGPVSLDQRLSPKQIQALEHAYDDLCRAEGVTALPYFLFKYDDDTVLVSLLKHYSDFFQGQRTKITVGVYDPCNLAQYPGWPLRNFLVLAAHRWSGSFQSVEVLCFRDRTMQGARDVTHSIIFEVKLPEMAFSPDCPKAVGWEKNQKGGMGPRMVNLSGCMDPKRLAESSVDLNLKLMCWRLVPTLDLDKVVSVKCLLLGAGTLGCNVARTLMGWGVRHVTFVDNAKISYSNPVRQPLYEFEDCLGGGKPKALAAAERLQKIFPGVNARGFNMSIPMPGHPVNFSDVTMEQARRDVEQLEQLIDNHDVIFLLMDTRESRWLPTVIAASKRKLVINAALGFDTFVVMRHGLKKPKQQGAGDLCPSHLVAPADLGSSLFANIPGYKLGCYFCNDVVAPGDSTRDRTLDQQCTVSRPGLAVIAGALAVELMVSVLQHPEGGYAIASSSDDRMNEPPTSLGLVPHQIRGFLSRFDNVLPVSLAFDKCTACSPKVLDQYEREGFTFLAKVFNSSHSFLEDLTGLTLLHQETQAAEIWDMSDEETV

Molecular target: T1, Trx1 trapping mutant (Trx1 C35S) coexpressed with the Atg7 mutants (human) (UniProt P10599)
T1 sequence: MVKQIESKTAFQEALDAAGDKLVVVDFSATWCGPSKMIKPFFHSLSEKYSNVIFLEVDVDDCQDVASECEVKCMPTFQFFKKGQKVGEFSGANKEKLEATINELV
Assay: co-IP; HEK293 cells with the indicated plasmids for 48 h (legend; the text says cardiomyocytes); Atg7 WT or mutants coexpressed with the Trx1 trapping mutant

binding: binds
Substance: WT Atg7 coexpressed with the Trx1 trapping mutant (from UniProt Q9D906) (enzyme)

These are yes or no findings as the source states them, for the method shown. In cells and extracts the contact can be indirect. A result given as binding can be weak or reduced; the word gives no strength.
